{
  "sequences": {"note": "Sequences of proteins named here, by UniProt entry; tags and fusion partners are left off. Residues count along the entry.", "UniProt P04629, residues 33-423": "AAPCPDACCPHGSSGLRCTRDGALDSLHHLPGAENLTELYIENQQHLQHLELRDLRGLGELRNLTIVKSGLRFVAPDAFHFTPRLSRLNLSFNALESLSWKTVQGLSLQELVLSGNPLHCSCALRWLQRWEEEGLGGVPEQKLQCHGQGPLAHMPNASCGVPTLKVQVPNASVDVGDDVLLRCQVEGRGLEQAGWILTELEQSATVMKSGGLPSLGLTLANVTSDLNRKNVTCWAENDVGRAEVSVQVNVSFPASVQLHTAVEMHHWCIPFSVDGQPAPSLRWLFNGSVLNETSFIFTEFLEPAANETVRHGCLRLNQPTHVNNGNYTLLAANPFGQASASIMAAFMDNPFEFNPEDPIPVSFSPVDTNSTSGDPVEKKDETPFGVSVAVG", "UniProt Q16620, residues 32-430": "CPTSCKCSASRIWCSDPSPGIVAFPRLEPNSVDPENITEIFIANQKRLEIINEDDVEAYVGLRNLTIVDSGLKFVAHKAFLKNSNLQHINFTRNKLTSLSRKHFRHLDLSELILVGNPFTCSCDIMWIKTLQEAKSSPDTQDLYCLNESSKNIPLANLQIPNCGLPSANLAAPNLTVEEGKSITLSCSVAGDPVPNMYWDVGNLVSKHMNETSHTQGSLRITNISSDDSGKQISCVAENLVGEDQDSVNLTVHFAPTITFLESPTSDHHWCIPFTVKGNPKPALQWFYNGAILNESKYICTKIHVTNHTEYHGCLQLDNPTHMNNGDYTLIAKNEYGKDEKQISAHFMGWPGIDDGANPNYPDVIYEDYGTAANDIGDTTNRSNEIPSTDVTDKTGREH", "UniProt Q16288, residues 32-429": "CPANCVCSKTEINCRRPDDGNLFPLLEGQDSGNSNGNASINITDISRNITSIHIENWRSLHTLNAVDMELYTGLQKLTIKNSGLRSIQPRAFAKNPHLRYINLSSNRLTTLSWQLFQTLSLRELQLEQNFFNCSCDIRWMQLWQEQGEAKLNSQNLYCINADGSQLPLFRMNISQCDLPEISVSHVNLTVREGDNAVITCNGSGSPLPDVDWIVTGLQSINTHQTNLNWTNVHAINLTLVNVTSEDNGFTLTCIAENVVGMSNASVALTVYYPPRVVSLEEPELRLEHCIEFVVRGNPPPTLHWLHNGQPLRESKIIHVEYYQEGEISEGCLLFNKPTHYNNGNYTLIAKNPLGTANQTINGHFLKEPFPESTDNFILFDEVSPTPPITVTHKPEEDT"},
  "source": "patent US20160244529A1",
  "about": "(ROTTAPHARM BIOTECH S R L, published 2016)",
  "binders": {"B1": {"name": "CRB0089_IgG4 (antibody, V domains shown)", "VH": "QVQLQESGPGLVKPSQTLSLTCAISGDSVSSNSAAWNWIRQSPSRGLEWLGRTFHRSRWYNEYPVSVRSRITINPDTSNNQFTLQLNSVTPDDTAVYYCARAPVAGLTFDIWGQGTMVTVSS", "VL": "QTVVTQEPSVSGAPGQRVTISCTGSSSIIGAGYEVHWYQHLPGTAPKLLIYDSINRPSGVPDRFSGSKSGTSASLAITGLQAEDEADYYCQSSAIFGGGTKLTVL", "notes": "Whole human IgG4 made in CHO-S cells; also called mAb CRB0089_IgG4; anti-TrkA CRB0089_IgG4"}, "B2": {"name": "anti-TrkA scFv CRB0084 (scFv)", "scFv": "QPVLTQPPSVSVAPRQTATITCGGNYIGSKSVHWYQQKPGQDPVLVVNDDSDRPSGIPERFSGSNSANTATLTISGVEAGDEADYYCQVWDSSTEPVVFGGGTKLTVLSGGSTSGSGKPGSGEGSSGTQVQLQQWGAGLLRPSETLSLTCTVSGGSFSDSYWTWIRQSPGKGLEWIGENNHRGSTNYSPTLRSRLSISIDSSKNQFSLKLSSVTAADTAVYYCARVPYRLRSRIFDVWGQGTMVTVSS", "notes": "From hSPLINT_09 selection"}, "B3": {"name": "anti-TrkA scFv CRB0088 (scFv)", "scFv": "QPVLTQSPPASASLGASVKLTCTLSSGHSSYAIAWHQQQPEKGPRYLMKVNSDGSHNKGDGIPDRFSGSRSGAERYLTISSLHSEDEADYYCQTWGAGGVVFGGGTKLTVLSGGSTSGSGKPGSGEGSSGTEVQLLESGGGLVQPGGSLRLSCAASGFTFSDHYMDWVRQAPGKGLEWVGRIRNKANSYTTEYAASVKGRFTISRDDSKKTLYLQMTSLKTDDTALYYCARDLGASDAFDLWGQGTMVTVSS", "notes": "From hSPLINT_09 selection"}, "B4": {"name": "anti-TrkA scFv CRB0089 (scFv)", "scFv": "QTVVTQEPSVSGAPGQRVTISCTGSSSIIGAGYEVHWYQHLPGTAPKLLIYDSINRPSGVPDRFSGSKSGTSASLAITGLQAEDEADYYCQSSAIFGGGTKLTVLSGGSTSGSGKPGSGEGSSGTQVQLQESGPGLVKPSQTLSLTCAISGDSVSSNSAAWNWIRQSPSRGLEWLGRTFHRSRWYNEYPVSVRSRITINPDTSNNQFTLQLNSVTPDDTAVYYCARAPVAGLTFDIWGQGTMVTVSS", "notes": "From hSPLINT_09 selection"}, "B5": {"name": "anti-TrkA scFv CRB0022 (scFv)", "scFv": "DIVLTQSPALMSASPGEKVTMTCSASSSVSYMYWYQQKPRSSPKPWIYLTSNLASGVPARFSGSGSGTSYSLTISSMEAEDAATYYCQQWSSNPYTFGGRTRLEIKPSGGSTSGSGKPGSGEDSSGAQVQLQQSGAELVKPGASVELSCTASGFNIKDTYMHWVKQRPEQGLEWIGGIDPANGNTIYVPKFQGKATITADTSSNTAYLQLSSLTSEDTAVYYCARGGYDFDYAMDYWGQGTSVTVSS", "notes": "From mSPLINT selection"}, "B6": {"name": "anti-TrkA scFv CRB0069 (scFv)", "scFv": "QPGLTQPPSASGTPGQRVTISCTGSSSNVGAGYTVHWYQQLPGTAPTLLIYDNNNRPSGVPDRFSGSRSGTSASLAITGLRAEDEADYYCQSYDRSRVYVFGTGTKLTVLSGGSTSGSGKPGSGEGSSGTQVQLQQSGPGLVKPSQTLSLTCAISGDSVSSNSAAWNWIRQSPSRGLERLGRTYYRSKWYNDYAESVKSRIIINSGTSKNQFSLHLNSVTPEDTAVYYCGRAKDGWYDAFDIWGQGTTVTVSS", "notes": "From hSPLINT_09 selection"}, "B7": {"name": "anti-TrkA scFv CRB0036 (scFv)", "scFv": "DIVMTQAAPSVPVTPGESVSISCRSSKSLLHSSGITSLYWYLQRPGQSPQLPIYRMSSLASGVPDRFSVSGSGTAFTLRISRVEAEDVGVYYCMQHLEYPLTFGAGTKLELKRSGGSTSGSGKPGSGEGSSGTQVQLQQSGAELLKPGASVKISCKATGYTFSNYWIEWVKQRPGHGLEWIGEILPGSGSAHYSEKFKDKATFTADTSSNTAYMQLSSLTSEDSAVYFCTRSPPNPGYWGQGTSVTVSS", "notes": "From mSPLINT selection"}, "B8": {"name": "anti-TrkA scFv CRB0072 (scFv)", "scFv": "DIQMTQSPISLSATVGDRVTITCRASQSIGRYLNWYQQKPGKAPKLLIYGASSLESGVPSRFSGSGSGTVFTLTISGLQPEDFATYCCQQSHSTAWTFGQGTKVEIKSGGSTSGSGKPGSGEGSSGTEVQLVETGGGLVQPGSSLRLSCATSGFTFINYGVHWVRQPPGKGLEWVASIWYEGSNEKYADSVKGRFTISRDNSRYTLHLQLNSLRAEDTADYYCVRDRGTGDYRNSRFYYGMDVWGQGTTVTVSS", "notes": "From hSPLINT_09 selection"}},
  "note": "These are yes or no findings as the source states them, for the method shown. Some results given as binding are weak or reduced against the parent protein; the word gives no strength.",
  "data": [
    {"molecular_target": "human TrkA immunoadhesin (human; Camelus dromedarius) (UniProt P04629)", "experiment": "specificity ELISA, hTrkA-Fc coated at 2 µg/mL, mAb 20-0.02 ug/mL, OD 450 nm", "values": [
      {"binder": "B1", "binding": "binds"}
    ]},
    {"molecular_target": "human TrkA immunoadhesin (human; Camelus dromedarius) (UniProt P04629)", "experiment": "ELISA on coated hTrkA-Fc", "values": [
      {"binder": "B2", "binding": "binds"},
      {"binder": "B3", "binding": "binds"},
      {"binder": "B4", "binding": "binds"},
      {"binder": "B5", "binding": "binds"},
      {"binder": "B6", "binding": "binds"},
      {"binder": "B7", "binding": "binds"},
      {"binder": "B8", "binding": "binds"},
      {"binder": "B1", "binding": "binds"}
    ]},
    {"molecular_target": "human TrkA immunoadhesin (human; Camelus dromedarius) (UniProt P04629)", "experiment": "ELISA on coated hTrkA-Fc, antibody 20 µg/mL-0.02 µg/mL", "values": [
      {"binder": "B1", "binding": "binds"}
    ]},
    {"molecular_target": "human TrkA immunoadhesin (human; Camelus dromedarius) (UniProt P04629)", "experiment": "ELISA, coated hTrkA-Fc, scFv at 50 and 5 ug/mL, OD 450 nm", "values": [
      {"binder": "B2", "binding": "binds"},
      {"binder": "B3", "binding": "binds"},
      {"binder": "B4", "binding": "binds"},
      {"binder": "B5", "binding": "binds"},
      {"binder": "B6", "binding": "binds"},
      {"binder": "B7", "binding": "binds"},
      {"binder": "B8", "binding": "binds"}
    ]},
    {"molecular_target": "human TrkA immunoadhesin (human; Camelus dromedarius) (UniProt P04629)", "experiment": "specificity ELISA, antigens coated at 2 µg/mL, scFv at 50 ug/mL (upper panel) and 5 ug/mL (lower panel), OD 450 nm", "values": [
      {"binder": "B2", "binding": "binds"},
      {"binder": "B3", "binding": "binds"},
      {"binder": "B4", "binding": "binds"},
      {"binder": "B5", "binding": "binds"},
      {"binder": "B6", "binding": "binds"},
      {"binder": "B7", "binding": "binds"},
      {"binder": "B8", "binding": "binds"}
    ]},
    {"molecular_target": "T1, human TrkB immunoadhesin (human; Camelus dromedarius, UniProt Q16620 32-430)", "T1 construct": "extracellular domain; also called hTrkB-Fc; TrkB immunoadhesins; not shown: Fc portion (immunoglobulin heavy chain constant region) of IgG2a camel antibody (Camelus dromedarius)", "experiment": "ELISA on coated immunoadhesin", "values": [
      {"binder": "B6", "binding": "binds"}
    ]},
    {"molecular_target": "T2, human TrkC immunoadhesin (human; Camelus dromedarius, UniProt Q16288 32-429)", "T2 construct": "extracellular domain; also called hTrkC-Fc; TrkC immunoadhesins; not shown: Fc portion (immunoglobulin heavy chain constant region) of IgG2a camel antibody (Camelus dromedarius)", "experiment": "ELISA on coated immunoadhesin", "values": [
      {"binder": "B6", "binding": "binds"},
      {"binder": "B7", "binding": "binds"}
    ]},
    {"molecular_target": "T1, human TrkB immunoadhesin", "experiment": "specificity ELISA, antigens coated at 2 µg/mL, scFv at 50 ug/mL (upper panel) and 5 ug/mL (lower panel), OD 450 nm", "method": "(§1) FIG. 3. Specificity ELISA of isolated anti-TrkA scFvs versus human TrkA immunoadhesin (hTrkA-Fc), human TrkB immunoadhesins (hTrkB-Fc), human TrkC immunoadhesins (hTrkC-Fc) and human p75 immunoadhesins (hp75-Fc). Human antigens were coated at 2 μg/mL. Anti-TrkA scFvs were used at 50 μg/mL (upper panel) and/or 5 μg/mL (lower panel). The mean absorbance at 450 nm of the experiments performed in duplicate wells is shown with SD indicated by the bars.", "values": [
      {"binder": "B6", "binding": "binds"}
    ]},
    {"molecular_target": "T2, human TrkC immunoadhesin", "experiment": "specificity ELISA, antigens coated at 2 µg/mL, scFv at 50 ug/mL (upper panel) and 5 ug/mL (lower panel), OD 450 nm", "method": "as §1", "values": [
      {"binder": "B6", "binding": "binds"},
      {"binder": "B7", "binding": "binds"}
    ]}
  ]
}
